Here are results for 42 sequences from article PMC7819943, “Rice protein-binding microarrays: a tool to detect cis-acting elements near promoter regions in rice”.

Sequences of proteins named here, by UniProt entry; tags and fusion partners are left off.
UniProt Q0JBA9, entry or part of it: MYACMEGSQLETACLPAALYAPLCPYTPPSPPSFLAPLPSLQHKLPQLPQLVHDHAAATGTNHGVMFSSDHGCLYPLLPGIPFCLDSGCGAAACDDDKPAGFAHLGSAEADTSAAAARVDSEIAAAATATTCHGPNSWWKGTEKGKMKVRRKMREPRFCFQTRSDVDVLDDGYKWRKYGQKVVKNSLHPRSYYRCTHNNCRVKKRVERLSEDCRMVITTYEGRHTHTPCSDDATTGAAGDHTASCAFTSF

This is one part of the list.

The target in this experiment is OsWRKY34 (Oryza sativa, UniProt Q0JBA9 1-250). Briefly: protein-binding microarray (RPBM); PBS, 2% BSA, 51.3 ng/ul salmon testes DNA, 50 uM zinc acetate, 200 nM TF, 25 C, 1 h; high values mean tight binding. To be noted: protein: recombinant; tags: N-terminal polyhistidine and DsRed monomer fusion (pET32a); label: CyDye5-dUTP incorporated in the synthesized complementary strand; 3' TTTTT single-stranded linker to array surface; dsDNA, one strand shown. Summed up: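 Transcription factors were made in E. coli BL21-CodonPlus as N-terminal fusions to a polyhistidine tag and DsRed, then purified on Ni–NTA. After primer extension with Cy5-dUTP and blocking with 2% BSA, a custom Agilent array was exposed for 1 h at 25 °C to 200 nM protein in PBS, 2% BSA, salmon testes DNA and 50 µM zinc acetate. Washed arrays were scanned on an Axon 4000B, and the binding signal is per-feature fluorescence intensity in arbitrary units.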
For the sequence “GCATAAAAGCATGCTCTCTCTTTTTCTCGTCTCTCTTCTCCGGAGTCACCTAGTGCAG”, the binding signal was 12100 fluorescence intensity (a.u.).

On to “AATTTACGTTTTTTCGGTGTCCCATAGCTAATTACATATCCGGAGTCACCTAGTGCAG”, for which the binding signal was 8550 fluorescence intensity (a.u.).

“ACAGCGGTTTTGGTTGACGTAGTGCCTATGTGGCGTTGACCGGAGTCACCTAGTGCAG”: the binding signal was 11700 fluorescence intensity (a.u.).

Take “TCATTAACTTTAACATATATTTATCCATCCTGTTGTATTCCGGAGTCACCTAGTGCAG”: the binding signal was 8380 fluorescence intensity (a.u.).

On to “TATGTGTGTGTTTTTTTTGTTGATTCTTAATTTCAAGAACCGGAGTCACCTAGTGCAG”, for which the binding signal was 12700 fluorescence intensity (a.u.).

On to “GTTCGGTCCTGTTCACTTTGATGTCATTTTTAACCTTATCCGGAGTCACCTAGTGCAG”, for which the binding signal is 10200 fluorescence intensity (a.u.).

As to “TAGTTACAACTTTTTCTTTAAACTTCCAACTTTTCCATCACGGAGTCACCTAGTGCAG”, the binding signal was 8580 fluorescence intensity (a.u.).

Consider “CCTGCGCGTTGGCCTGCTTGATGTGTCGGCCCAAAATGGTCGGAGTCACCTAGTGCAG”, for which the binding signal is 8300 fluorescence intensity (a.u.).

On to “CTTGCCTTTTTTATTCCTTAATTCTTAAGCAGCACTTTCACGGAGTCACCTAGTGCAG”, for which the binding signal was 9270 fluorescence intensity (a.u.).

For “ATCACAATAGTAACTATACTCTACAATCCATGGTTTCTTACGGAGTCACCTAGTGCAG”, the binding signal is 8960 fluorescence intensity (a.u.).

As for “CACGTACTCATCCATCTACACATCTTCTTCTCATCATCTCCGGAGTCACCTAGTGCAG”, the binding signal was 10000 fluorescence intensity (a.u.).

Consider “ATCCAACGCGAGTGTTGCAATGCACTTGGTTTGTTGTTTGCGGAGTCACCTAGTGCAG”, for which the binding signal was 10600 fluorescence intensity (a.u.).

In the case of “ATTTTCCTATTCGTACGTTTTCTCAATCCTGCGATTAAAGCGGAGTCACCTAGTGCAG”, the binding signal is 11600 fluorescence intensity (a.u.).

Take “AGCTTTCACTTTGACCTTAGAATATGTTACACGTTTGTTTCGGAGTCACCTAGTGCAG”: the binding signal is 9850 fluorescence intensity (a.u.).

For “CATGTGCTCAAAGCTTATCTGCATACAAGCCTTCGAGACCCGGAGTCACCTAGTGCAG”, the binding signal was 64100 fluorescence intensity (a.u.).

“TTTAGGGTTTGTGATTTTGCCCCTGCTTTTTTGAAATGAACGGAGTCACCTAGTGCAG”: the binding signal was 10900 fluorescence intensity (a.u.).

Consider “ATCTATGCTTGTTCGTCAGTTGTGTTTGTGTCAAATGAGCCGGAGTCACCTAGTGCAG”, for which the binding signal is 10300 fluorescence intensity (a.u.).

As to “TCTCTCTCTCTCTCTCTCTATATATATATATATATATATACGGAGTCACCTAGTGCAG”, the binding signal is 9260 fluorescence intensity (a.u.).

Regarding “TCTCTCTCTTCTCGCCCCACCCTACTCCTTCTAGTACCTCCGGAGTCACCTAGTGCAG”, the binding signal was 8300 fluorescence intensity (a.u.).

As to “GCTCGCTGCCCATATATACGCGCGCCTCGCGTCTCCACTTCGGAGTCACCTAGTGCAG”, the binding signal is 10900 fluorescence intensity (a.u.).

With “GGGTGTTTTGTTGACTATGAGTACTTTGACTGAAGAGGGTCGGAGTCACCTAGTGCAG”, the binding signal was 10100 fluorescence intensity (a.u.).

With “ATCCACAGTTTTTTTGACTTGCACCCTTCCTATTATTCCACGGAGTCACCTAGTGCAG”, the binding signal was 10700 fluorescence intensity (a.u.).

Turning to “GCCGGCGCCTCGTCCGTCATTCCGCCTGTGTCAAGCCGAACGGAGTCACCTAGTGCAG”, the binding signal is 11500 fluorescence intensity (a.u.).

For “TGCATCGTCTTAGGATTCTCCGTCTTGCCCACAATACTATCGGAGTCACCTAGTGCAG”, the binding signal is 8220 fluorescence intensity (a.u.).

For the sequence “AGACCACCATGCTTCACACTCCACTCCACACTGGCACACTCGGAGTCACCTAGTGCAG”, the binding signal is 12900 fluorescence intensity (a.u.).

For the sequence “GACTCCTTCCAATCCTCTTCATCCTCCGCCGCCGCGCTTGCGGAGTCACCTAGTGCAG”, the binding signal is 11600 fluorescence intensity (a.u.).

As for “TCCTTCGGCAACGACCTCAACACAGACGTGGGCGACGACGCGGAGTCACCTAGTGCAG”, the binding signal is 8060 fluorescence intensity (a.u.).

As to “CTTCCAATTTTAACGTCTACCAAATCTAAATTGTCTGTTCCGGAGTCACCTAGTGCAG”, the binding signal was 8370 fluorescence intensity (a.u.).

Regarding “ATGAGTGATTGATTTCTTGTTTATAGGAGTGGGTTGTTCACGGAGTCACCTAGTGCAG”, the binding signal was 11200 fluorescence intensity (a.u.).

With “ACATGCACAAGGTAGCCTCCGCTTTAATTCCTTCCCTTTTCGGAGTCACCTAGTGCAG”, the binding signal is 8860 fluorescence intensity (a.u.).

Consider “ACGGTACGCATCGAAGCTCTCTTTCTCTCTGCCCTCTCTACGGAGTCACCTAGTGCAG”, for which the binding signal is 8050 fluorescence intensity (a.u.).

Regarding “CACTTATTCTTCAGGTTTGGATTCCATCCTGTTCTGTCATCGGAGTCACCTAGTGCAG”, the binding signal is 9730 fluorescence intensity (a.u.).

Consider “CCCGAAGTCTATTATGCATGGTGAACTGGTGGTGTTCCGACGGAGTCACCTAGTGCAG”, for which the binding signal was 9200 fluorescence intensity (a.u.).

Consider “TAGTAGGTGTGGACTAAGTGTAGTATGTTTGACCGGTTGTCGGAGTCACCTAGTGCAG”, for which the binding signal was 15200 fluorescence intensity (a.u.).

In the case of “CTGGGTGTGGGTCAACTTTGCGACATCATTACGTCCCCAACGGAGTCACCTAGTGCAG”, the binding signal was 8270 fluorescence intensity (a.u.).

On to “ACGGCTCGCATCTTCACTTGCCAATGTGAGAATCTTGTGTCGGAGTCACCTAGTGCAG”, for which the binding signal is 8070 fluorescence intensity (a.u.).

For “CTCCCACCTACCCACGTCTGACAACCTGGCCCCACACCCACGGAGTCACCTAGTGCAG”, the binding signal was 8120 fluorescence intensity (a.u.).

Take “TTTGGCTGCCGACACGTCCCCTTGGTTGCAACAAACCTCTCGGAGTCACCTAGTGCAG”: the binding signal was 8680 fluorescence intensity (a.u.).

In the case of “CACCACGCCGCTCGCCGCCCTCGCGGCTTCCTGCCATCCGCGGAGTCACCTAGTGCAG”, the binding signal was 10600 fluorescence intensity (a.u.).

Take “GTGCCACGCAGTATCACTCTTGTCCTGTCGCCTTCGATTTCGGAGTCACCTAGTGCAG”: the binding signal was 9040 fluorescence intensity (a.u.).

For “TGAGGTGAGGGCAGGGGCAGGGGCAGGGCGGACTGGCCAACGGAGTCACCTAGTGCAG”, the binding signal is 8680 fluorescence intensity (a.u.).

As for “TCCATCCGGCGAGCGGAGCAGGGGAGGGGAGGGGATCTTGCGGAGTCACCTAGTGCAG”, the binding signal was 14300 fluorescence intensity (a.u.).
